Laboratory results from patent US6867009B2 (priority 1999, dated 2005).
At least one structure is not confirmed: it was looked up by name or label, or the drawing left a doubt.

Sequences of proteins named here, by UniProt entry; tags and fusion partners are left off.
UniProt O35433, whole entry: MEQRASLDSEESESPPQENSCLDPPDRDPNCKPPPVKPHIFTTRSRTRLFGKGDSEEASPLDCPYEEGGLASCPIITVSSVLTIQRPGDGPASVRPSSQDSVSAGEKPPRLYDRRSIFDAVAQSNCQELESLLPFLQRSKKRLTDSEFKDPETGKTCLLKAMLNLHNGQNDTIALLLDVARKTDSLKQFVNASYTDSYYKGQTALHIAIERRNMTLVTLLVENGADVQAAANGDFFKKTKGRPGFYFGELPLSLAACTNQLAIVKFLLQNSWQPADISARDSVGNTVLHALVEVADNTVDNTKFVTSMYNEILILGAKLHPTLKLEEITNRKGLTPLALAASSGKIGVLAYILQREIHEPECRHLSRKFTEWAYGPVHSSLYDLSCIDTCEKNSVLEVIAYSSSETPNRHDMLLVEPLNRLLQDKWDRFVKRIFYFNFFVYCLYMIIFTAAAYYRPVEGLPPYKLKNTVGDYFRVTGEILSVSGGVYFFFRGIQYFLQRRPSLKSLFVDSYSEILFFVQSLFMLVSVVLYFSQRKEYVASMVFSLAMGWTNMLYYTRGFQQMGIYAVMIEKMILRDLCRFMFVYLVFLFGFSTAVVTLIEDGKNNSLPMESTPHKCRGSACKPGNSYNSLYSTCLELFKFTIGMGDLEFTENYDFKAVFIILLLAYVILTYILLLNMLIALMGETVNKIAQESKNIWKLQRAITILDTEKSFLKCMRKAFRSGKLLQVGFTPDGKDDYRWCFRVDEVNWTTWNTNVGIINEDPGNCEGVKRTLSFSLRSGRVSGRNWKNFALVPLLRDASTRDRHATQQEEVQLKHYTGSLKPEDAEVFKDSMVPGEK

Tests used:
[1] = target: T1, rat VR1 (Rattus norvegicus, UniProt O35433); format: cell-based; conditions: read-out: Ca2+-mobilization (EC50, nM), functional antagonist
T1 construct: expressed in transfected cells

[2] = system: rat dorsal root ganglion neurons; conditions: read-out: 45Ca2+-uptake (EC50, nM), functional antagonist; cited from earlier work

N.N.N.N.N.N.N.N.N.N.N.N.N.N.[Cl-].[Cl-].[Cl-].[Cl-].[Cl-].[Cl-].[O-2].[O-2].[Ru+3].[Ru+3].[Ru+4] [ruthenium red]
EC50 [1]: 210 nM | EC50 [2]: 790 nM
